Data on one molecule can be found in publication PMC5096713.

This experiment addresses T1, RFP-tagged wild-type Rab5 (Rab5-RFP) (Drosophila) (UniProt Q9V3I2).
T1 sequence: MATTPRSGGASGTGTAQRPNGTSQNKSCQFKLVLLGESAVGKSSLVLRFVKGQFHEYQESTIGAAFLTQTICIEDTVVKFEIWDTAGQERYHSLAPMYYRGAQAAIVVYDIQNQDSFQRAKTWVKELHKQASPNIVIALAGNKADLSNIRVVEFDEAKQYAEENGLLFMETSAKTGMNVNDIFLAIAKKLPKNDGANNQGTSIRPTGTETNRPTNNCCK
Nature of the experiment: co-IP; Drosophila S2 cells co-transfected; cell lysates immunoprecipitated by anti-RFP; Western blot.

Results are given in words; binding and its absence hold for the method and conditions named. Binding seen in cells or lysates may run through a third protein. Some entries that bind do so weakly or less than the wild type. Where a sequence is shown, tags or fusion partners need not be part of it.

B1: GFP-tagged BMP type-II receptor Punt (Punt-GFP) (receptor, UniProt Q24468 25-516)
chain: SILPGSHGIIECEHFDEKMCNTTQQCETRIEHCKMEADKFPSCYVLWSVNETTGILRIKMKGCFTDMHECNQTECVTSAEPRQGNIHFCCCKGSRCNSNQKYIKSTTEATTQVPKEKTQDGSNLIYIYIGTSVFSVLMVIVGMGLLLYRRRKQAHFNEIPTHEAEITNSSPLLSNRPIQLLEQKASGRFGDVWQAKLNNQDVAVKIFRMQEKESWTTEHDIYKLPRMRHPNILEFLGVEKHMDKPEYWLISTYQHNGSLCDYLKSHTISWPELCRIAESMANGLAHLHEEIPASKTDGLKPSIAHRDFKSKNVLLKSDLTACIADFGLAMIFQPGKPCGDTHGQVGTRRYMAPEVLEGAINFNRDAFLRIDVYACGLVLWEMVSRCDFAGPVGEFQLPFEAELGLRPSLDEVQESVVMKKLRPRLLNSWRAHPGLNVFCDTMEECWDHDAEARLSSSCVMERFAQLNKYPSTQLLIKNHTNIDDAKESTNCL
Turning to B1, the binding entry is on record as “binds”.
